According to US9371322B2, “Bicyclic aza-amides for treatment of psychiatric disorders” (MAX-PLANCK-GESELLSCHAFT ZUR FÖRDERUNG DER WISSENSCHAFTEN …, priority 2012, dated 2016):
The structures given here were assigned with low confidence; some may be wrong.

Amino acid sequences for entries named in this document (tags omitted). Residues count along the entry.
UniProt P62942, whole entry: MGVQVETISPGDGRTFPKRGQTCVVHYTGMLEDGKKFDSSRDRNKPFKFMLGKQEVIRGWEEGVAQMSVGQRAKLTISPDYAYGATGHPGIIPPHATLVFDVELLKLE
UniProt Q13451, 42-130 limits assumed: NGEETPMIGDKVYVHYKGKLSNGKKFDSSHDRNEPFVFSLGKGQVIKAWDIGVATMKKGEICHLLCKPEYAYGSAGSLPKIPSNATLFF
UniProt Q02790, 50-138 limits assumed: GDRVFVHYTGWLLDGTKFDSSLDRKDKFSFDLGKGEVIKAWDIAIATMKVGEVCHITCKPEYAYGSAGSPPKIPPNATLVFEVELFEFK

Columns and labels:
[1] = target: FKBP12 (Homo sapiens, UniProt P62942); test: Competitive fluorescence polarization assay, binding to FKBP12
[2] = target: FKBP51 (Homo sapiens, UniProt Q13451); test: Competitive fluorescence polarization assay, binding to FKBP51; conditions: read-out: FKBP51 Ki, FKBP51FK1, fluorescent tracer 20 nM final, 30 min room temperature
[3] = target: FKBP52 (Homo sapiens, UniProt Q02790); test: Competitive fluorescence polarization assay, binding to FKBP52; conditions: read-out: FKBP52 Ki, FKBP52FK1, fluorescent tracer 20 nM final, 30 min room temperature

For `CCC(C)(C)C(=O)C(=O)N1CCCC[C@H]1C(=O)OCCOc1ccc(OC)c(OC)c1`, the “FKBP12 ligand efficiency (LE)” value ([1]; LE=(ΔG)/N, ΔG=−RTlnKi, RT=0.6, N non-hydrogen atoms) was 0.27, the Ki ([1]; read-out: FKBP12 Ki, fluorescence polarization, fluorescent tracer 20 nM final, 30 min room temperature) was 0.9 µM and the Ki [2] was over 100 µM. It also gave a Ki [3] of over 100 µM.
